Test results: article doi:10.1101/2020.06.17.158212
Read-outs that look alike come from different tables or passages of the source. These are yes or no findings as the source states them, for the method shown. For part of these data: Binding seen in cells or lysates may run through a third protein. Some binding calls cover weakened binding; strength is not graded here. Sequences can lack the tags named with a protein.

Chains of the proteins cited; added tags and fusions are not shown.
UniProt Q39026: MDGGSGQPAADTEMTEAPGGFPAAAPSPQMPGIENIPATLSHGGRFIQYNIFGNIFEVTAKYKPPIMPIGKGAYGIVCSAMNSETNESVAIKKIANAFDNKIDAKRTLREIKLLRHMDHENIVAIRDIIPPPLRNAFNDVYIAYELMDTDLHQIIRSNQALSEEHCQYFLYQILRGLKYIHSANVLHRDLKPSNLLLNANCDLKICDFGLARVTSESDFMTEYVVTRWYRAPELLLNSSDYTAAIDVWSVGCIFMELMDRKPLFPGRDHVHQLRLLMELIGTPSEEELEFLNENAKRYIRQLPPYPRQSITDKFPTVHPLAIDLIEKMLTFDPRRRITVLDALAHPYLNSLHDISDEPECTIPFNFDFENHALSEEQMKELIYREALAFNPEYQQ

B1: AD-MPK3 (enzyme, UniProt Q39023 1-370)
chain: MNTGGGQYTDFPAVETHGGQFISYDIFGSLFEITSKYRPPIIPIGRGAYGIVCSVLDTETNELVAMKKIANAFDNHMDAKRTLREIKLLRHLDHENIIAIRDVVPPPLRRQFSDVYISTELMDTDLHQIIRSNQSLSEEHCQYFLYQLLRGLKYIHSANIIHRDLKPSNLLLNANCDLKICDFGLARPTSENDFMTEYVVTRWYRAPELLLNSSDYTAAIDVWSVGCIFMELMNRKPLFPGKDHVHQMRLLTELLGTPTESDLGFTHNEDAKRYIRQLPNFPRQPLAKLFSHVNPMAIDLVDRMLTFDPNRRITVEQALNHQYLAKLHDPNDEPICQKPFSFEFEQQPLDEEQIKEMIYQEAIALNPTYG
B2: MPK3 (BiFC fusion used with WRKY20) (enzyme, UniProt Q39023 1-370)
chain: B1 chain

Assays:
[1] = target: T1, BD-WRKY20 (Arabidopsis thaliana) (UniProt Q93WV0); assay: two-hybrid
T1 sequence: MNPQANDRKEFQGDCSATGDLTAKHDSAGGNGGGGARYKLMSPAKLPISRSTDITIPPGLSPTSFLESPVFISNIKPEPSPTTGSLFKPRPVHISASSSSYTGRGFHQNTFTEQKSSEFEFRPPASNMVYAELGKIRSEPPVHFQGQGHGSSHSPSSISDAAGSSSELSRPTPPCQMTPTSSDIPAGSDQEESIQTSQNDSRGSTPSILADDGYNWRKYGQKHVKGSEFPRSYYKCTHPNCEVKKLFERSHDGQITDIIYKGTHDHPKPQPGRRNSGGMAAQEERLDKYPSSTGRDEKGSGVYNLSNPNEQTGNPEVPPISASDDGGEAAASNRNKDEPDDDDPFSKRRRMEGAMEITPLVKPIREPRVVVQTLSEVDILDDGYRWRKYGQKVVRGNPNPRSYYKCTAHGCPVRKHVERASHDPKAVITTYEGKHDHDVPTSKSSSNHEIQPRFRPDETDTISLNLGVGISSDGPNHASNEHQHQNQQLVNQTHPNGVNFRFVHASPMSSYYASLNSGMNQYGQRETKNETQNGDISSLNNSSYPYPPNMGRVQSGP

[2] = target: T2, WRKY20 (BiFC fusion used with MPK3 or MPK6) (Arabidopsis thaliana) (UniProt Q93WV0); assay: split reporter
T2 sequence: T1 sequence

[3] = target: T2, WRKY20 (BiFC fusion used with MPK3 or MPK6) (Arabidopsis thaliana); assay: split reporter; remark: listed apart in the source

Molecule	binding [1]	binding [2]	binding [3]
AD-MPK6 (from UniProt Q39026 1-395) (enzyme)	binds	–	–
MPK6 (BiFC fusion used with WRKY20) (from UniProt Q39026 1-395) (enzyme)	–	binds	binds
B1	binds	–	–
B2	–	binds	binds
